Where a sequence shows no end group, the ends are not given.

The data set can be described thus: Boc solid-phase peptide synthesis; Boc-proline Merrifield resin. To be noted: whole synthesis, 214 nm, scale of the general procedure Boc-proline resin (1.8326 g).

IWGCSGKLICTTAVP: the “final HPLC purity” value came out at 87%.

Values taken from EP0309566B1 (JOHNSON AND JOHNSON, priority 1987, dated 1994).
